Assay results published in paper PMC4294327.
No constants are given. Whether binding was seen depends on the method and setting. In cells and extracts the contact can be indirect. Some binding calls cover weakened binding; strength is not graded here.

Columns and labels:
[1] = target: Cyclin B1 (human (endogenous in K562)) (UniProt P14635); assay: co-IP; cytoplasmic fraction of K562 cells synchronized at G2/M; Cyclin B1 immunoprecipitated, PKC⍺ detected by Western blotting
[2] = target: Cyclin B1 (human (endogenous in K562)) (UniProt P14635); assay: co-IP; endogenous proteins from total K562 lysates (mPER lysis buffer, 500 μg protein, antibody overnight at 4°C, Protein A/G PLUS-Agarose); cells synchronized at G2/M with Nocodazole, also G1/S cycling cells; non-specific IgG as negative control
[3] = target: Cyclin B1 (human (endogenous in K562)) (UniProt P14635); assay: condition: only in the nuclear fraction of G2/M cells; co-IP; nuclear fraction of K562 cells synchronized at G2/M; Cyclin B1 immunoprecipitated, PKC⍺ detected by Western blotting

binding [1]: binds
binding [2]: binds
binding [3]: no binding
Substance: Protein Kinase C ⍺ (PKC⍺) (from UniProt P17252 1-672) (enzyme)
